Results on 79 molecules are retold here after article PMC12040169 (PLOS Biology, 2025).

This is one part of the list.

For this assay, the system named is T1, CTL2-GFP (C. trachomatis L2/434/Bu, GFP-expressing).
T1 construct: L2/434/Bu, GFP-expressing
Also on record: species or system HeLa; Intracellular C. trachomatis growth in HeLa cells, bulk GFP fluorescence relative to DMSO. The settings on record: bulk GFP, single well; 28.5 h, 10 µM; inhibitor.
For the molecule `CCN(CC)C(=O)c1ccsc1NS(=O)(=O)c1cccc2cccnc12` [CBK042317], the “% of control remaining” value was 136.766%.
Next, `CC(C)(C)OC(=O)N1CCN(Cc2ncc(-c3ccccc3)o2)CC1` [CBK306281]: 149.703%; `Cc1cccc(-c2n[nH]/c(=N/C(=O)c3ccccc3F)s2)c1` [CBK287957]: 137.108%.
Turning to `OC(CN1CCC(O)(c2ccc3c(c2)OCO3)CC1)c1ccc2c(c1)CCC2` (stereo not shown) [CBK286326], the “% of control remaining” value is on record as 130.959%.
The result for `N#CCCCN1CCC(Oc2nccnc2OCc2ccc(Br)cc2F)CC1` [CBK153647] reads 106.538%.
The result for `O=C(O)c1cccc(Sc2cc(C(F)(F)F)ccn2)c1` [CBK093590] reads 120.116%; that for `CCC(=O)Nc1ccc(O)cc1C(=O)O` [CBK126818], 109.248%.
The result for `Cc1cc(NS(=O)(=O)c2ccc(C(C)C)cc2)n[nH]1` [CBK044646] reads 101.672%; that for `COc1ccc(Oc2cncc(OC3CCN(Cc4ccc(Cl)c(Cl)c4)C3)n2)cc1OC` (stereo not shown) [CBK084391], 80.5118%.
As for `CCOC(=O)N1CCN(CC(O)COc2cc(C)c(Cl)c(C)c2)CC1` (stereo not shown) [CBK033833C], the “% of control remaining” value stood at 111.9%.
`Cc1cc(NC(=O)CN2CCC(CSc3ccccc3)C2)no1` (stereo not shown) [CBK306136]: the “% of control remaining” value was determined as 128.176%.
With `CCNc1nccnc1-c1ccc(O)cc1` [CBK088589], the “% of control remaining” value worked out at 127.701%.
The result for `O=S(=O)(c1cccc2nsnc12)N1CCN(C2CCCCC2)CC1` [CBK268173] reads 123.816%; that for `COc1ccc(COc2nc3c(c(=O)n(C)c(=O)n3C)n2Cc2ccc(Cl)c(Cl)c2)cc1` [CBK268779], 112.432%.
For the molecule `Cc1ccc(NC2=NC3(N=C(N)N2)C(=O)N(C)c2ccccc23)cc1` (stereo not shown) [CBK270157], the “% of control remaining” value stood at 122.298%.
The result for `C[C@@H]1CN(C(=O)c2cncn2C)C[C@H](C)O1` [CBK200370] reads 137.31%; that for `Cc1nn(C)c(Cl)c1S(=O)(=O)Nc1ccnn1C` [CBK062072], 113.246%; that for `S=c1nc[nH]cc1-c1ccc(Br)cc1` [CBK005833], 113.656%.
Turning to `Cc1cc2nc(-c3ccccc3)[nH]c2cc1C` [CBK086484], the “% of control remaining” value is on record as 145.5%.
The result for `O=C(O)/C=C/c1cccc(-c2cnc3[nH]c(=O)n(C4CC4)c3n2)c1` [CBK065091] reads 199.985%; that for `COc1cc(OCc2ccccc2)ccc1CN1CCN(Cc2ccc3c(c2)OCO3)CC1` [CBK074768], 86.1773%; that for `O=C(c1ccc2[nH]nnc2c1)N1CCN(S(=O)(=O)Cc2ccccc2)CC1` [CBK295346], 151.418%.
Next, `O=C(NC[C@H]1C[C@@H]2CC[N@]1C[C@@H]2CN1CCN(c2ccccn2)CC1)Nc1ccccc1` [CBK289114]: 108.685%; `FC(F)(F)c1cccc(-c2cn(-c3ccsc3)nn2)c1` [CBK112937]: 74.6333%; `COc1ccc(C(=O)Nc2cnn(CCCC(=O)O)c2)cc1` [CBK270052]: 107.311%.
Next, `C/C(=N\N)c1ccc2[nH]c3c(c2c1)CCC/C3=N\N` [CBK261812]: 108.978%.
Regarding `C[C@@H](Cn1nc2c(cc1=O)CCCC2)NC(=O)c1ccco1` [CBK284559], the “% of control remaining” value amounted to 150.709%.
The result for `O=C(Nc1ccc2nc(CN3CCOCC3)[nH]c2c1)C1CCCCC1` [CBK305728] reads 127.441%; that for `c1ccc2nc3c(nc2c1)sc1nc2ccccc2n13` [CBK268872], 71.0847%; that for `N#CCCOc1nc2ccccc2nc1N1CCCC1` [CBK115763], 80.6489%.
In the case of `O=C(O)COCC(=O)N1C[C@@H]2OCC(=O)N(Cc3ccccc3)[C@@H]2C1` [CBK289652], the “% of control remaining” value is 163.704%.
The result for `COc1ccccc1CC(=O)N1C2CCC1CC(O)(c1ccco1)C2` (stereo not shown) [CBK284106] reads 119.575%; that for `CC(=O)c1ccc(-c2nc(-c3cccc(OC(F)(F)F)c3)cnc2N)cc1` [CBK064105], 111.67%; that for `Cc1ccc(Cl)c(OC(C)C(=O)N2CCN(c3ccccn3)CC2)c1` (stereo not shown) [CBK304650], 110.855%.
The result for `CCc1ccccc1NC(=O)CN1CCCCC1C(=O)O` (stereo not shown) [CBK287179] reads 101.204%.
Next, `O=C(Nc1nccs1)c1cc(=O)c2ccccc2o1` [CBK287570]: 136.402%.
Consider `OC1(c2cccnc2)CCCC2CN(Cc3c(F)cccc3F)CC21` (stereo not shown) [CBK284512], for which the “% of control remaining” value came out at 78.0006%.
On to `Cc1ccc(-c2noc(C(C)NC(=O)C3(Cn4ccnc4)CC3)n2)cc1` (stereo not shown) [CBK307661], for which the “% of control remaining” value turned out to be 88.3271%.
Next, `O=S(=O)(c1ccc2ccccc2c1)N1CCN(C2CCCCCCC2)CC1` [CBK264186G]: 126.647%; `NC(CCc1nc2ccccc2[nH]1)c1nc2ccccc2[nH]1` (stereo not shown) [CBK269970]: 155.331%.
Next, `O=C(Nc1cccc(C(F)(F)F)c1)N[C@H]1[C@H](O)[C@@H](N2CCCC2)[C@@H]2OC[C@H]1O2` [CBK288828]: 143.809%; `O=C(NCc1ccccc1)c1c(O)c2ccccc2n(Cc2ccccc2)c1=O` [CBK291174]: 114.716%.
The result for `Cn1nc(CN2CCNC(=O)C2c2ccccc2C(F)(F)F)[nH]c1=O` (stereo not shown) [CBK306269] reads 180.628%.
As to `Cc1ccc(NC(=O)c2cnc3ccc(C)cn3c2=O)cc1` [CBK287285], the “% of control remaining” value is on record as 129.913%.
Next, `CN(C(=O)CN1CCN(c2cc(-c3cc4ccccc4o3)ncn2)CC1)c1ccccc1` [CBK091128]: 203.055%; `Cc1cc(C)n(C(C)C(=O)NCC2(N(C)C)CCCC2)n1` (stereo not shown) [CBK281713]: 78.9656%; `Oc1ccc(Nc2ccnc3cc(Cl)ccc23)cc1` [CBK012365C]: 192.398%.
Next, `O=C(COC(=O)C1CCN(S(=O)(=O)c2cccc3cccnc23)CC1)c1cccc([N+](=O)[O-])c1` [CBK264435]: 128.701%; `COc1ccc(-c2noc(-c3cnccn3)n2)c(OC)c1` [CBK287878]: 131.417%; `Cn1c(-c2cc(=O)c(C(=O)O)c[nH]2)n[nH]c1=O` [CBK012603]: 158.599%.
Next, `CC(C)c1ccc(C(C)NC(=O)c2ccc(=O)n(CC(=O)NC3CCCC3)c2)cc1` (stereo not shown) [CBK286038]: 133.245%.
Turning to `c1ccc2oc(SCCCCSc3nc4ccccc4o3)nc2c1` [CBK025465], the “% of control remaining” value was determined as 113.364%.
Next, `Cc1ccc(S(=O)(=O)N2CCOCC2)cc1C(=O)NCCc1ccccc1` [CBK269658]: 107.706%; `CC1CCN(S(=O)(=O)c2ccc(Cl)c(C(=O)Nc3ccc(C(=O)O)cc3)c2)CC1` [CBK265170]: 115.129%.
The result for `CC(C(=O)NCCc1ccncc1)n1cnc2ccccc21` (stereo not shown) [CBK282202] reads 132.273%; that for `Cc1ccc(S(=O)(=O)OCCOS(=O)(=O)c2ccc(C)cc2)cc1` [CBK260986], 118.645%.
The result for `Cc1ccc(C)c(NS(=O)(=O)c2ccc(NC(=O)c3ccc(CN4CCOCC4)cc3)cc2)c1` [CBK264780] reads 101.035%; that for `O=C(NCCCc1ccccn1)c1cccc(N2CCCC2=O)c1` [CBK282643], 113.623%.
Turning to `CC(C)c1ccc(S(=O)(=O)n2ccn(-c3cccc(C(F)(F)F)c3)c2=O)cc1` [CBK106587], the “% of control remaining” value came to 135.992%.
Next, `O=C(O)CC1C(=O)NCCN1CC(c1ccccc1)c1ccccc1` (stereo not shown) [CBK286539]: 118.834%; `c1cncc(CN2CCCN(c3nccc(OCC4COc5ccccc5O4)n3)CC2)c1` (stereo not shown) [CBK083969]: 89.0295%.
The result for `Cc1cc(C)c(C)c(S(=O)(=O)Nc2cc(S(=O)(=O)N3CCOCC3)ccc2F)c1C` [CBK269698] reads 152.197%; that for `O=C(COc1ccccc1Cl)Nc1cccc(NC(=O)c2cccc(Cl)c2)c1` [CBK263651], 97.3154%; that for `Cc1nc2ncccn2c1-c1csc(Nc2ccc(C(=O)O)cc2)n1` [CBK263284], 91.1768%.
The result for `O=C(c1ccncc1)N1CCc2ccccc21` [CBK200280] reads 104.699%; that for `O=C(Nc1ccc2[nH]ccc2c1)N1CCc2ccccc2C1` [CBK155289], 110.004%; that for `CCCNCc1ccc(-c2nnn(CC(=O)NCc3ccc(C4CCC4)cc3)n2)cc1` [CBK167525C], 122.362%.
On to `O=c1n(CC2CCCCC2)c2ccccc2n1S(=O)(=O)c1cccc(Cl)c1` [CBK106521], for which the “% of control remaining” value came to 145.624%.
The result for `Cc1nnc(CN2CCOC(c3nc(C(C)(C)C)cs3)C2)n1C` (stereo not shown) [CBK305772] reads 183.514%; that for `O=C(CSCc1c(Cl)cccc1Cl)Nc1ccc(S(=O)(=O)N2CCOCC2)cc1` [CBK266276], 118.516%.
With `CC1CCC(C(C)C)C(OCC(O)CN2CCN(C)CC2)C1` (stereo not shown) [CBK278213C], the “% of control remaining” value was 113.322%.
In the case of `CC(C)Cc1nc(C(=O)N2CCC3(C2)NC(=O)NC3=O)cs1` (stereo not shown) [CBK305534], the “% of control remaining” value is 128.85%.
Next, `Cc1ccc(NC(=O)c2ccccc2NS(=O)(=O)c2ccc(C(C)C)cc2)cc1` [CBK113800]: 119.981%; `O=C1O[C@@H](CO)CN1c1ccc(N(Cc2ccccc2)Cc2ccccc2)c(F)c1` [CBK016873]: 78.5422%.
The result for `CC1CCc2c(C(=O)Nc3ncc(Cc4ccccc4)s3)csc2C1` (stereo not shown) [CBK300531] reads 109.488%; that for `COc1ccc(CCNC(=S)n2cc(C)cn2)cc1OC` [CBK267001], 165.666%.
The result for `CC(C)[C@@H](CO)Nc1nccnc1-c1ccoc1` [CBK036648] reads 195.805%; that for `c1ccc(Nc2c(-c3ccccc3)nc3[nH]cnn23)cc1` [CBK287284], 94.8389%.
For the molecule `COc1ccc(C(=O)Nc2nnc(-c3ccc(OC)c(OC)c3)o2)cc1OC` [CBK287745], the “% of control remaining” value is recorded as 104.465%.
